Results from US20120214744A1 (L UNIVERSITE PARIS DESCARTES, published 2012).
No constants are given. Whether binding was seen depends on the method and setting. In cells and extracts the contact can be indirect. Some results given as binding are weak or reduced against the parent protein; the word gives no strength.

Sequences of proteins named here, by UniProt entry; tags and fusion partners are left off. A change or cut given only in a name is not applied to a line headed by its entry.
UniProt P15311: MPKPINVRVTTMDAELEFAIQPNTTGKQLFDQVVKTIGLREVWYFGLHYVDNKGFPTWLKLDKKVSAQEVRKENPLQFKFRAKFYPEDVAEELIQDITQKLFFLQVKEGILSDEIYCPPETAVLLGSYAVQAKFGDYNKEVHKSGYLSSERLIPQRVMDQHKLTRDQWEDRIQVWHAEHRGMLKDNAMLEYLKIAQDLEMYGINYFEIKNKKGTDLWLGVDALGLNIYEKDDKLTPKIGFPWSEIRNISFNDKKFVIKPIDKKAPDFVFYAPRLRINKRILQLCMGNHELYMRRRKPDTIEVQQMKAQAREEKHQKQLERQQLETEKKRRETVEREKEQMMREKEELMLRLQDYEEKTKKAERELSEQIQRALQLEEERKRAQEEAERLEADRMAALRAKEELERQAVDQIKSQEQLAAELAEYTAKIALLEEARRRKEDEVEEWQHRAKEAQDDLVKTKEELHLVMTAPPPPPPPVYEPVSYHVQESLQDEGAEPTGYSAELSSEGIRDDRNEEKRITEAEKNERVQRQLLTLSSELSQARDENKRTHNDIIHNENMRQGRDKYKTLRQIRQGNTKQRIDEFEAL
UniProt P26038: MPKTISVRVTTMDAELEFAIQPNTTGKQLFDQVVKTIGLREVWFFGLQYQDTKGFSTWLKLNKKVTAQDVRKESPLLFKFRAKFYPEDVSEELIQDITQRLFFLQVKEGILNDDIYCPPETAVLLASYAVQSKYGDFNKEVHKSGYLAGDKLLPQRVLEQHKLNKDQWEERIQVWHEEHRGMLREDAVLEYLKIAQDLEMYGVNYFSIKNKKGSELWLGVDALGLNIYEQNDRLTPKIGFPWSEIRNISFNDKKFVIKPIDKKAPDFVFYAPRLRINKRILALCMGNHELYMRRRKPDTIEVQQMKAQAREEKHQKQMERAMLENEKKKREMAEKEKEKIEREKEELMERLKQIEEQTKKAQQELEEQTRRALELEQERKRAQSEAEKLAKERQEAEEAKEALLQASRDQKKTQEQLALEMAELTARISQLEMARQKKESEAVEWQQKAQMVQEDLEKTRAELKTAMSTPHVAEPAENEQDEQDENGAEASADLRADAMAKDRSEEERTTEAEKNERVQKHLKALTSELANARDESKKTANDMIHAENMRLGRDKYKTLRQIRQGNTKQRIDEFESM

Experiments:
endogenous ErbB2 (human) [1] = molecular target: endogenous ErbB2 (human) (UniProt P04626); assay: GST pull-down, western blot
[2] = molecular target: T1, gD-tagged wild-type ErbB2 (human, UniProt P04626 23-1255); assay: GST pull-down, western blot
T1 construct: whole, on cells; Expressed in HBMECs (human endothelial cells); also called gD-ErbB2-WT; gD-ErbB2 WT

endogenous ErbB2 (human) [3] = molecular target: endogenous ErbB2 (human) (UniProt P04626); assay: GST pull-down from HBMEC lysates, western blot
[4] = molecular target: T1, gD-tagged wild-type ErbB2; assay: GST pull-down from HBMEC lysates, anti-gD western blot
[5] = molecular target: T1, gD-tagged wild-type ErbB2; assay: co-immunoprecipitation (IP gD) from HBMECs, western blot

binding (endogenous ErbB2 (human) [1])	binding [2]	binding (endogenous ErbB2 (human) [3])	binding [4]	binding [5]	Substance
binds	binds	binds	binds	–	GST fused with the amino-terminal domain (FERM domain) of ezrin (from UniProt P15311 1-295)
–	–	–	–	binds	endogenous moesin of human endothelial cells (HBMECs) (from UniProt P26038 2-577)
